Source: article doi:10.1101/2022.07.22.501112
No constants are given. Whether binding was seen depends on the method and setting. For part of these data: In cells and extracts the contact can be indirect. Some results given as binding are weak or reduced against the parent protein; the word gives no strength. For part of these data: Tags and fused reporters may be left off the sequences shown.

By UniProt entry, the sequences of proteins in these tests, tags left out. Residues count along the entry.
UniProt Q07021, 74-282: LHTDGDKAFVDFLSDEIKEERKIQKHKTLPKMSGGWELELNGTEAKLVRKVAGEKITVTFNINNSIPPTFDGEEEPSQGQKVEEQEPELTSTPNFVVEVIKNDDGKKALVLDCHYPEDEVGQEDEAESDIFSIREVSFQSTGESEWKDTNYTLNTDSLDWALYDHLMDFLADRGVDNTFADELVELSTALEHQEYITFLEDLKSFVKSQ

Key:
[1] = molecular target: FLAG-tagged MIER1(aa:171-350), ELM2-SANT domain (human) (UniProt Q8N108); experiment: SEC-MALS
[2] = molecular target: T1, FLAG-tagged MIER1(aa:171-512) (human) (UniProt Q8N108); experiment: co-IP + SEC
T1 sequence: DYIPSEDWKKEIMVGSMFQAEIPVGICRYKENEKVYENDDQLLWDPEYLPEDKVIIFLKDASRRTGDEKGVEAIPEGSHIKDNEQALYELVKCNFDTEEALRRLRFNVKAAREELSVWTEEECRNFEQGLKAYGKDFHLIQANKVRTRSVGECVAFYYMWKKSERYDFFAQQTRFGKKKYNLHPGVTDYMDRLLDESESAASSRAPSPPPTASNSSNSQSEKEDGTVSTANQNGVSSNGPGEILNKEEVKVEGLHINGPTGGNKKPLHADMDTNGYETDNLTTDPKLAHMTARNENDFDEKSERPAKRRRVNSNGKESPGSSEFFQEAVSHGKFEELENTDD

[3] = molecular target: Full length FLAG tagged MIER1(aa:1-512) (human) (UniProt Q8N108); experiment: co-IP + SEC

| Substance | binding [1] | binding [2] | binding [3] |
| --- | --- | --- | --- |
| FLAG-tagged MIER1(aa:171-350), ELM2-SANT domain (from UniProt Q8N108 171-350) (domain or fragment) | no binding | – | – |
| endogenous C1QBP, mature form (from UniProt Q07021 74-282) | – | binds | binds |
